Test results from patent US20060253917A1.
No constants are given. Whether binding was seen depends on the method and setting. Some entries that bind do so weakly or less than the wild type.

The chains behind the UniProt entries cited, without tags or fusion partners. Where a name states a change or a piece, a line headed by the entry shows the natural chain unless it says otherwise.
UniProt Q10CQ1: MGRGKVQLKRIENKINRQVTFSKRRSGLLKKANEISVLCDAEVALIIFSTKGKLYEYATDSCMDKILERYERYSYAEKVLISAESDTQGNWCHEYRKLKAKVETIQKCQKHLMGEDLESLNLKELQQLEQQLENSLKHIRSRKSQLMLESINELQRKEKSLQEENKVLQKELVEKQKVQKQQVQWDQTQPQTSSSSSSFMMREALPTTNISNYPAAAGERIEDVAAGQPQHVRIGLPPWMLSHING
UniProt Q6EU39: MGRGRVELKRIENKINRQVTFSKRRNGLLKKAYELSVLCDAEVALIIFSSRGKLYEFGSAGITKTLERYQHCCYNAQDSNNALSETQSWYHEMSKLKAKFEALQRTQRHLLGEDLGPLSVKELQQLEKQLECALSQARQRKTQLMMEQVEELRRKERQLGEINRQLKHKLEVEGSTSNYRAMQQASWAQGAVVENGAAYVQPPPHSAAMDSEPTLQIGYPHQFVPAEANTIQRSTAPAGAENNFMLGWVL
UniProt P0C5B0: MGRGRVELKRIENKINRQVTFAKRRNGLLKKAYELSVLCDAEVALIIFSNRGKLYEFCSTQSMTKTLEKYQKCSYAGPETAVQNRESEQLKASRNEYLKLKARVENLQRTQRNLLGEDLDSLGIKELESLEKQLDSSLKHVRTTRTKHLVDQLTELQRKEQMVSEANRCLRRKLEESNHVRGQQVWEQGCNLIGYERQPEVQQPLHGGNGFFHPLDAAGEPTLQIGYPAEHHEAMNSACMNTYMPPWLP
UniProt Q6Z6W2: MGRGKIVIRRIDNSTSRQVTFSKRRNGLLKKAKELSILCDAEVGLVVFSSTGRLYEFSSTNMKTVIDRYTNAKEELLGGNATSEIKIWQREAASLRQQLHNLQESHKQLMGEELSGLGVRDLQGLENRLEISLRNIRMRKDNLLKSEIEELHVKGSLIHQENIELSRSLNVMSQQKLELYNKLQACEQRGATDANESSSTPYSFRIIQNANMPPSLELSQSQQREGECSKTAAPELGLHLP

Legend:
Assay in all cases: Y2H; output trait library
[1] = biological target: OsRAP1B aa 1-247 (Oryza sativa) (UniProt Q10CQ1)
[2] = biological target: T1, Os018989-4003 aa 90-220 (Oryza sativa)
T1 sequence: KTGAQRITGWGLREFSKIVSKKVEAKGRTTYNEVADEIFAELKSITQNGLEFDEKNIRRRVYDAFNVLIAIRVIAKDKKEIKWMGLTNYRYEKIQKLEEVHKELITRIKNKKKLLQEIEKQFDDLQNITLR

[3] = biological target: OsMADS6 aa 50-200 (Oryza sativa) (UniProt Q6EU39)

binding [3]	other results	Substance
	binding [1]: binds	OsMADS7 aa 1-250 (from UniProt P0C5B0 1-240)
	binding [2]: binds	OsMADS14 aa 54-180 (from UniProt Q10CQ1 54-180)
binds		OsPN29949 aa 109-193 (from UniProt Q6Z6W2 109-193)
binds		OsPN29949 aa 118-241 (from UniProt Q6Z6W2 118-241)
